{"source": "PubChem BioAssay AID1259254, NCATS, 2017", "test": "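Genome-wide screen for genes that prevent DNA re-replication in cancer cells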 (primary screen)", "system": "human HCT116 colorectal cancer cells", "knock-down reagent": "single siRNA against human genes", "timing": "3 days", "measurement": "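Nuclei stained with Hoechst and imaged; cell-cycle phase assigned by DNA content; G2 share scaled per plate, non-targeting siRNA 0%, GMNN siRNA 100%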", "scale": "G2 robust z-score and G2 cells, % of GMNN control: higher = more G2 cells, more excess DNA replication", "rule for the call": "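An siRNA counts as active if its G2 robust z-score lies at least 5 MADs above the screen median; here such calls match roughly 38% of GMNN control or more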", "note": "Shown is one part, drawn at random, of about 59,000 deposited reagents. Of all reagents, about 1,550 (2.6%) are marked active. 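G2 share is only a proxy for re-replication; each gene was hit by three separate siRNAs, and active genes were retested.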 A number with no mark means an inactive call. Reagents against one gene are numbered here. Not all columns of the deposit are shown. Reagent sequences are not shown. Not stated in the record: the amount of reagent."}
{"Target gene":"OR4N5 (GeneID 390437)","reagent":1,"G2 robust z-score":-0.742,"G2 cells, % of GMNN control":-2.26}
{"Target gene":"OR4N5 (GeneID 390437)","reagent":2,"G2 robust z-score":0.0426,"G2 cells, % of GMNN control":3.27}
{"Target gene":"OR4N5 (GeneID 390437)","reagent":3,"G2 robust z-score":-0.691,"G2 cells, % of GMNN control":-1.9}
{"Target gene":"COL6A3 (GeneID 1293)","reagent":1,"G2 robust z-score":0.263,"G2 cells, % of GMNN control":4.82}
{"Target gene":"COL6A3 (GeneID 1293)","reagent":2,"G2 robust z-score":1.71,"G2 cells, % of GMNN control":15}
{"Target gene":"COL6A3 (GeneID 1293)","reagent":3,"G2 robust z-score":-1.22,"G2 cells, % of GMNN control":-5.58}
{"Target gene":"ITIH4 (GeneID 3700)","reagent":1,"G2 robust z-score":-0.605,"G2 cells, % of GMNN control":-1.29}
{"Target gene":"ITIH4 (GeneID 3700)","reagent":2,"G2 robust z-score":-0.205,"G2 cells, % of GMNN control":1.52}
{"Target gene":"ITIH4 (GeneID 3700)","reagent":3,"G2 robust z-score":0.104,"G2 cells, % of GMNN control":3.7}
{"Target gene":"GGT7 (GeneID 2686)","reagent":1,"G2 robust z-score":-0.427,"G2 cells, % of GMNN control":-0.0395}
{"Target gene":"GGT7 (GeneID 2686)","reagent":2,"G2 robust z-score":-0.949,"G2 cells, % of GMNN control":-3.71}
{"Target gene":"GGT7 (GeneID 2686)","reagent":3,"G2 robust z-score":-0.172,"G2 cells, % of GMNN control":1.76}
{"Target gene":"ZG16 (GeneID 653808)","reagent":1,"G2 robust z-score":-0.968,"G2 cells, % of GMNN control":-3.84}
{"Target gene":"ZG16 (GeneID 653808)","reagent":2,"G2 robust z-score":0.384,"G2 cells, % of GMNN control":5.67}
{"Target gene":"ZG16 (GeneID 653808)","reagent":3,"G2 robust z-score":4.17,"G2 cells, % of GMNN control":32.3}
{"Target gene":"ZG16 (GeneID 653808)","reagent":4,"G2 robust z-score":-0.0116,"G2 cells, % of GMNN control":2.89}
{"Target gene":"ZG16 (GeneID 653808)","reagent":5,"G2 robust z-score":-0.491,"G2 cells, % of GMNN control":-0.485}
{"Target gene":"ZG16 (GeneID 653808)","reagent":6,"G2 robust z-score":-0.637,"G2 cells, % of GMNN control":-1.51}
{"Target gene":"PRKAG2-AS2 (GeneID 644090)","reagent":1,"G2 robust z-score":-0.872,"G2 cells, % of GMNN control":-3.17}
{"Target gene":"PRKAG2-AS2 (GeneID 644090)","reagent":2,"G2 robust z-score":0.375,"G2 cells, % of GMNN control":5.61}
{"Target gene":"PRKAG2-AS2 (GeneID 644090)","reagent":3,"G2 robust z-score":0.464,"G2 cells, % of GMNN control":6.23}
{"Target gene":"PRKAG2-AS2 (GeneID 644090)","reagent":4,"G2 robust z-score":-0.975,"G2 cells, % of GMNN control":-3.89}
{"Target gene":"PRKAG2-AS2 (GeneID 644090)","reagent":5,"G2 robust z-score":-0.812,"G2 cells, % of GMNN control":-2.74}
{"Target gene":"PRKAG2-AS2 (GeneID 644090)","reagent":6,"G2 robust z-score":0.201,"G2 cells, % of GMNN control":4.38}

Just “G2 cells, % of GMNN control”, for 2 of the entries above:
ZG16 (GeneID 653808) #4	2.89
ZG16 (GeneID 653808) #5	-0.485
